Results are percentages, as filed. The record does not define 0% and 100%; most values in the screen are far below 50% and negative numbers occur (in some assays of this library far below -100). This is an unselected part of the compounds tested. A dash means the value is not listed here; it may have been measured.

Amino acid sequences for entries named in this document (tags omitted).
UniProt E9BF75, entry or part of it: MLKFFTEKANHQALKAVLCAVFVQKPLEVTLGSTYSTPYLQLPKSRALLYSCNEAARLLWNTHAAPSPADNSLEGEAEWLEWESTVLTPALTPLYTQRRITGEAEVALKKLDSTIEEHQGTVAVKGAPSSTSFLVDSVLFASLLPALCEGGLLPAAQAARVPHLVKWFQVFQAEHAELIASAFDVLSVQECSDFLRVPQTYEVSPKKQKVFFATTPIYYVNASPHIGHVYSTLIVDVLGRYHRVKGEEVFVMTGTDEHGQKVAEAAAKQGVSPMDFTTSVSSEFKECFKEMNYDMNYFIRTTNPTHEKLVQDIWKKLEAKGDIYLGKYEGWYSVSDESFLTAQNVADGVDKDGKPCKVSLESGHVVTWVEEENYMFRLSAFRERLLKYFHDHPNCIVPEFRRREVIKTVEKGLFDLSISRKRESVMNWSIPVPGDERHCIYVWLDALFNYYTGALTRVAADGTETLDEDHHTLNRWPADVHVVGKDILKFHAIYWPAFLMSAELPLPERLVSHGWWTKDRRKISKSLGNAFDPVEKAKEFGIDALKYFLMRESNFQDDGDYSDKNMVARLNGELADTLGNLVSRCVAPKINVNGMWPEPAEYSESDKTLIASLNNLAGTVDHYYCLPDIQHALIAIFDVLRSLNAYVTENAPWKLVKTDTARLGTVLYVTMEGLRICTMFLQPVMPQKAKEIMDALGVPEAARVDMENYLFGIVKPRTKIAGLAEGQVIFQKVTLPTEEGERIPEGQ

LdMetRS: 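Primary screen of methionyl-tRNA synthetase; the read-out is not stated. Target: Methionyl-tRNA synthetase (putative), Leishmania donovani (UniProt E9BF75). The test concentration is not given. Values are per cent inhibition. Size under these conditions: about 68,000 compounds, about 24 of them at 50% or above in at least one test.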
Mtb heat-shock: 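Assay on Mycobacterium tuberculosis, filed only as a heat shock assay from Cornell; the read-out is not stated. The concentration is filed as 10 mM, unlikely as a test dose, so the dose is not known. The record gives no direction; compounds that gave an IC50 in retests scored well above the rest, so higher reads as stronger inhibition. Of about 69,000 compounds tested this way, about 930 (1.4%) reached 50% or more in at least one test.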

Compound	LdMetRS	Mtb heat-shock
Cc1cnc(N2CCc3c(CN(C)Cc4ccco4)cncc3C2)nc1	11.78	14.9
Cc1nc(CN2CCN(C)C(=O)C23CCN(C(C)C)CC3)cs1.O=C(O)C(F)(F)F	-	30.32
CC(C)c1cc(NC(=O)Cn2ccc(=O)c3ccccc32)[nH]n1	1.977	21.81
O=C(NC[C@H]1OC[C@@H](N(CC2CC2)CC2CC2)[C@@H]1O)Nc1ccccc1	9.153	-16.43
CCC1CN(C(=O)c2cc(CN(C)CCc3ccccc3)on2)CCO1 (stereo not given)	19.88	-10.59
CCc1nnc2n1CCN(C(=O)c1cnc(C3CC3)s1)C2	10.76	8.401
CN(C)CC1COCCN1C(=O)C1(c2cccs2)CCCC1 (stereo not given)	14.91	-
CCCN(C(=O)CS(=O)(=O)c1ccccc1)c1cccc(C)c1	16.54	-34.7
COc1ccc(CCN(C)C2CCCN(Cc3noc(C)n3)C2)cc1 (stereo not given)	4.469	-17.42
O=C(CCc1ccccc1)Nc1ncccc1OC(F)F	17.7	-4.422
[H][C@@]12CCN(S(=O)(=O)c3cccs3)[C@]1([H])CCC(=O)N2CC	-	-3.679
CC(C)(C)CC(=O)NCC(=O)Nc1ccn(Cc2ccccc2)n1	9.632	-17.68
O=C(O)C(F)(F)F.O=C(c1cnccn1)N1CCc2ncnc(-c3cccnc3)c2CC1	-	-7.113
COc1ccccc1OCC(=O)NCC(C)(O)c1ccccc1 (stereo not given)	14.08	-31.92
CC(C)NC(=O)Cn1ccc2c(Cl)cccc21	16.67	11.42
CCOc1cc2c(cc1CCC(=O)O)CCC2	13.66	2.496
[H][C@]12CN(Cc3ccccc3Cl)C[C@]1([H])N(CCOC)C(=O)CO2	-	-6.771
CC(C)CS(=O)(=O)N1CCC2(CN(c3ccsc3)C(=O)CN2C)C1 (stereo not given)	12.57	-
FC(F)(F)c1ccc(CNC[C@H]2COCc3nc4cccnc4n32)cc1	12.7	4.252
Cc1nccc(N2CCN(C3CCOCC3)CC(C(=O)N(C)C)C2)n1 (stereo not given)	16.19	-10.46
O=C(C1CC1)N1CC[C@@H]2[C@H](CC1)N(Cc1cccnc1)CCS2(=O)=O	16.24	-
Cc1ccc(CN2CCC3(CC2)C(=O)NCCN3CC2CC2)o1	-4	-30.63
Cc1cc(C)c(CNC(=O)NCCCNc2ccccn2)c(=O)[nH]1	10.43	-16.82
O=S(=O)(NCCNc1ccc(-n2cccn2)nn1)c1ccccc1	-	101.1
Cc1ccc(Cl)c(C)c1NC(=O)N1CCCN(Cc2ccccn2)CC1	15.97	15.26
Cn1nccc1CNC(=O)CCn1nc(C(F)(F)F)c(Cl)c1C1CC1	12.16	-16.05
O=C(c1ccoc1)N1CC[C@@H]2O[C@H](COCc3ccccn3)CC[C@@H]21	7.071	-
CC1(c2ccccc2)CCCN(Cc2cncn2C2CC2)C1 (stereo not given)	22.34	105.6
CCc1c(C)noc1-c1cnc(NC2CC2)nc1-c1cnc(C)cn1	9.032	7.361
Cc1cccc(CN2CC3(CCN(C(=O)C4CC4)CC3)OCC2=O)n1	14.72	-17.85
Cc1nc(CNCC2Cn3nncc3CO2)cs1 (stereo not given)	16.62	-
Cc1ccc(C)c(CS(=O)(=O)Cc2ccn(C)c(=O)c2)c1	15.93	-3.745
CC(c1cccc(S(N)(=O)=O)c1)N(C)CCOc1ccccc1 (stereo not given)	4.53	8.45
CCCS(=O)(=O)N1CCN(CCOC)c2nc(C)ccc2C1	14.29	-
Cc1cnn(CCC(=O)N2CCN(c3nc(C)cs3)CC2)c1	11.74	4.077
COCCn1/c(=N\C(=O)CN(C)S(C)(=O)=O)sc2cc(Cl)ccc21	4.348	-10.29
COc1ccc(CNc2cnn(C)c(=O)c2Cl)cc1	21.1	2.292
O=C(c1cnccn1)N1CCN(Cc2cccnc2)c2ncccc2C1	1.918	-7.11
COc1ccccc1CC(=O)NS(C)(=O)=O	13.36	-3.113
Cn1ccnc1CN1C[C@H]2CN(S(C)(=O)=O)CCN2C1=O	12.03	-
c1ccc(-c2nc(CN3CCCC3Cn3cncn3)cs2)cc1 (stereo not given)	-11.74	13.8
CC(C)NC(=O)CC1(Cn2cnnn2)CCCCC1	8.746	14.59
O=C(c1cncc(F)c1)N1CCC(c2ncc[nH]2)CC1	10.7	17.39
O=C(NC[C@H]1OC[C@@H](NC2CCC(F)(F)CC2)[C@@H]1O)C1CC1	11.19	0.551
CC(c1ccco1)n1cc(-c2cc(CN3CCCC3)cs2)nn1 (stereo not given)	13.1	19.81
[H][C@@]12CNCC[C@]1(O)CCN(c1nccnc1N(C)C)C2	-	-7.8
CC(C(=O)NCc1ccc(N2CCCCCC2)nc1)S(C)(=O)=O (stereo not given)	13.19	-6.687
Cc1cc(CN2CCN(CC(O)c3ccccc3)CC2)no1 (stereo not given)	4.225	0.8045
CN(C(=O)COc1ccc(F)cc1)[C@@H]1CC[C@@H](n2ccnc2)[C@@H]1O	22.6	-20.31
CC(C)(C(=O)NCCCc1nc2ccccc2[nH]1)n1cc(Cl)cn1	15.38	-7.796
CC(C)c1nccc(CN2CCC(c3nc4ccccc4n3C)CC2)n1	14.66	0.564
Cc1cccc2cc(CN3CCC(N4CCCC4)CC3)c(=O)[nH]c12	16.08	7.634
Cc1nccn1CCC1CCCCN1Cc1ccc(O)cc1Cl (stereo not given)	12.29	-44.5
Cc1cc(NC(=O)N2CCCC(CO)C2)nn1-c1ccccc1Cl (stereo not given)	6.211	-20.35
CC(C)NC(=O)NC[C@H]1C[C@@H]2CCN1C[C@@H]2CN(C)c1ccccc1	-1.017	-
Cc1cc(C(=O)N2CCc3nc(N4CCOCC4)nc(C)c3C2)c(C)o1.O=CO	-	40.84
[H][C@@]12CCN(C(=O)c3cc(C)[nH]c3C)C[C@@]1([H])O[C@@H](c1ccncn1)C2	-	-24.18
CN(C)C(=O)c1cn[nH]c1C1CCCN1Cc1cncn1C (stereo not given)	11.01	-12.24
CC(=O)N1CCC(C(=O)NC2CC(C)(C)Oc3cc(C)ccc32)CC1 (stereo not given)	9.722	4.544
c1ccc(CN2CCc3ncnc(-c4ccoc4)c3CC2)nc1	25.71	-
O=C(NCc1cccnc1)C1=NOC2(CCN(C3CCOCC3)C2)C1 (stereo not given)	10.37	-10.01
CC(C)C(=O)N1CCC12CCCN(C(=O)c1ccnnc1)C2 (stereo not given)	10.95	5.236
Cc1csc(CN(C)S(=O)(=O)c2ccc(C)c(N(C)C)c2)n1	4.945	-9.901
Cc1nc(C)n(C2CCCN(C(=O)c3ccc(F)cc3F)C2)n1 (stereo not given)	18.1	7.298
CN(C)CC1CN(C(=O)CCc2ccccc2)Cc2nccn2C1 (stereo not given)	17.79	-
Cc1cccc(N2CCN(C(=O)CN3CCC(C(N)=O)CC3)CC2)c1	17.02	-22.59
CN(C)c1ncc(NC(=O)N2CCC(CN3CCCC3)C2)cn1 (stereo not given)	9.157	3.178
O=C(c1ccccc1)N1CC[C@H]2C[C@@H](c3nccs3)O[C@@H]2C1	15.85	-
CCC(=O)NCC(=O)NCC1(c2c(F)cccc2F)CCCC1	12.63	7.208
COCCN1CCCC12CCN(c1ncccn1)CC2.O=C(O)C(F)(F)F	-	11.73
Cc1sc2c(C3CCCNC3)nc(Nc3cccc(F)c3)n2c1C.Cl (stereo not given)	-	1.818
Cc1nc[nH]c1CNC1CC(=O)N(CCc2cccc(Cl)c2)C1 (stereo not given)	8.589	-2.513
NC(=O)c1ccccc1-n1cc(-c2cccc(C(=O)O)c2)cn1	3.194	-4.967
O=C(O)C(F)(F)F.O=C(O)C(F)(F)F.O=C(O)C(F)(F)F.[H][C@@]12CN(Cc3cccnc3OC)C[C@]1([H])OCCN2CCN(C)C	-	-25.64
COC(=O)c1ccc(N2CCN(CC(=O)NC(N)=O)C(C)C2)cc1 (stereo not given)	16.48	-11.04
Cc1ncc(CNC(=O)c2oc3ccccc3c2CN(C)C)s1	7.754	-16.38
CN1C(=O)CCN(C(=O)C2CCCCC2)c2ccccc21	9.42	-13.68

From ChEMBL document CHEMBL3988442, “University of Dundee, Small-Polar-MMV Screening Library” (2021).